This data set in a line: general procedure: solution-phase peptide synthesis; EDC/N-hydroxysuccinimide; HATU/HOBt/2,4,6-collidine for cyclisation. As to conditions: TFA; for step yield: late stage modification step.

Substance “2-((5S,8S,14S)-5-(4-aminobutyl)-2-benzyl-8-(3-guanidinopropyl)-3,6,9,12,15-pentaoxo-1,2,4,7,10,13-hexaazacyclopentadecan-14-yl)acetic acid” returned a step yield of 40%. Substance “2-((5S,8S,14S)-2-benzyl-5-(1-(4-(3-fluoropropyl)-1H-1,2,3-triazol-1-yl)-2,18-dioxo-6,9,12,15-tetraoxa-3,19-diazatricosan-23-yl)-8-(3-guanidinopropyl)-3,6,9,12,15-pentaoxo-1,2,4,7,10,13-hexaazacyclopentadecan-14-yl)acetic acid” displayed a step yield of 38%. As for “2-((5S,8S,14S)-2-benzyl-5-(4-(2-(4-(3-fluoropropyl)-1H-1,2,3-triazol-1-yl)acetamido)butyl)-8-(3-guanidinopropyl)-3,6,9,12,15-pentaoxo-1,2,4,7,10,13-hexaazacyclopentadecan-14-yl)acetic acid”, the step yield was 45%. Substance “2-((5S,8S,14S)-5-(4-(2-azidoacetamido)butyl)-2-benzyl-8-(3-guanidinopropyl)-3,6,9,12,15-pentaoxo-1,2,4,7,10,13-hexaazacyclopentadecan-14-yl)acetic acid” came in with a step yield of 19%.

For the setting “cyclisation step”, “tert-butyl 2-((5S,8S,14S)-2-benzyl-5-(4-(tert-butoxycarbonylamino)butyl)-3,6,9,12,15-pentaoxo-8-(3-(3-(2,2,4,6,7-pentamethyl-2,3-dihydrobenzofuran-5-ylsulfonyl)guanidino)propyl)-1,2,4,7,10,13-hexaazacyclopentadecan-14-yl)acetate” came in with a cyclisation yield of 99%.

Where the note is “conjugation step”, “2-((5S,8S,14S)-5-(1-azido-2,18-dioxo-6,9,12,15-tetraoxa-3,19-diazatricosan-23-yl)-2-benzyl-8-(3-guanidinopropyl)-3,6,9,12,15-pentaoxo-1,2,4,7,10,13-hexaazacyclopentadecan-14-yl)acetic acid” displayed a conjugation yield of 7.5%. The substance “(5S,8S,14S)-2-amino-5-(3-(tert-butoxycarbonylamino)propyl)-18,18-dimethyl-3,6,9,12,16-pentaoxo-8-(3-(3-(2,2,4,6,7-pentamethyl-2,3-dihydrobenzofuran-5-ylsulfonyl)guanidino)propyl)-1-phenyl-17-oxa-2,4,7,10,13-pentaazanonadecane-14-carboxylic acid” came in with a step yield of 99.8%.

Source of the values: patent US8486372B2 (Siemens Medical Solutions USA, Inc., priority 2007, dated 2013).
